Data: PubChem BioAssay AID588590 (National Center for Advancing Translational Sciences (NCATS), 2011)
The campaign covered roughly 390,000 compounds. About 4,000 (1%) were called active. This list was built around the results that the source calls inconclusive (neither active nor inactive); the mix of calls is not that of the screen. The call rests on the fitted dose curve; in most records, active means well fitted inhibition curve with a large enough effect; inconclusive means small, poorly fitted or top-dose-only effect, or another doubt; inactive means no such curve, though single readings can be large or run the other way. Potencies beside an inconclusive call are fits to weak or partial responses and may not hold up.

Chains of the proteins cited; added tags and fusions are not shown. Lines headed by an entry give the natural chain unless they say otherwise; changes in a name come on top.
UniProt Q9UNA4: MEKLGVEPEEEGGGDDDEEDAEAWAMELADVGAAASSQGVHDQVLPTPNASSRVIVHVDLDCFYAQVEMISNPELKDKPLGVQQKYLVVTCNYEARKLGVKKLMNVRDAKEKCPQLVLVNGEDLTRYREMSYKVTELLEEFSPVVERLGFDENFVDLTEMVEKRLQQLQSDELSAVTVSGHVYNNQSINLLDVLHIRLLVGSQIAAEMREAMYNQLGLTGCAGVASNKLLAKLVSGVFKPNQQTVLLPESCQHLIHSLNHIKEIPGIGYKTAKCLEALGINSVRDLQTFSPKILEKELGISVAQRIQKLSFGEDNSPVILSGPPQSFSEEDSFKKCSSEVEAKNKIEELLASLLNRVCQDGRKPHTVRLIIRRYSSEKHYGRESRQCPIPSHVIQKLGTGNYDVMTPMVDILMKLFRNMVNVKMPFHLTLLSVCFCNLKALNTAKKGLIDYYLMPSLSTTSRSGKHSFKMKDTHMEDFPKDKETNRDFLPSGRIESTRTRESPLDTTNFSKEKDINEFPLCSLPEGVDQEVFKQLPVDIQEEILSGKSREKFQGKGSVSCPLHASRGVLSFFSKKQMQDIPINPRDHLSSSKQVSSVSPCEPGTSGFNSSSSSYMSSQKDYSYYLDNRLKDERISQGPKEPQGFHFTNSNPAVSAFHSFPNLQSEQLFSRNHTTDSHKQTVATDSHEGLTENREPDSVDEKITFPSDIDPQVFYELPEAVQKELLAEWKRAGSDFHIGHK

These compounds were tested against DNA polymerase iota (Homo sapiens) (UniProt Q9UNA4) (assay: qHTS for Inhibitors of Polymerase Iota). Conditions: Pol iota fluorescent replication assay, 10 min; series mostly up to 115 µM.
How it was run: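 Fluorescent replication assay read twice, at 0 min and 10 min after adding 50 nM (final) substrate. Enzyme (10 nM) and compounds were first incubated 15 min at room temperature; enzyme-free buffer wells were negative controls.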
Potency means the concentration at half of the fitted maximal effect.

Potency, inconclusive:
O=C(COC(=O)c1ccc(Cl)c(S(=O)(=O)N2CCCC2)c1)NCc1ccccc1 44.7 µM [inhibitor, partial curve], O=C(CSc1nc2ccccc2s1)NCC1CCCO1 (stereo unspecified) 28.2 µM [inhibitor, partial curve], Nc1ccc(N2CCOCC2)c(S(=O)(=O)Nc2cc(Cl)ccc2Cl)c1 89.1 µM [inhibitor, partial curve, poor fit], Cc1cc(C)n(-c2nnc(C)n2NC(=O)c2cccc(Cl)c2)n1 89.1 µM [inhibitor, single point], COC(=O)c1ccccc1NC(=O)c1cc2ncc(Br)cn2n1 44.7 µM [inhibitor, partial curve, poor fit], O=C1NC(=Nc2ccc3ccccc3c2)S/C1=C/c1ccco1 79.4 µM [inhibitor, single point], Cc1cc(C(=O)OC2CCOC2=O)c2ccccc2n1 (stereo unspecified) 79.4 µM [inhibitor, partial curve, poor fit], Cc1ccc(C)c(OCC(=O)Nc2cc(NC(=O)COc3cc(C)ccc3C)cc(C(=O)O)c2)c1 22.4 µM [inhibitor, partial curve], O=C1Nc2c(Br)cccc2C1=O 31.6 µM [inhibitor, full curve, poor fit], O=C(CSc1nc2ccc(Cl)cc2[nH]1)c1cccs1 63.1 µM [inhibitor, partial curve, poor fit], COc1cc(/C=C/C(=O)OC(C)C(=O)c2ccccc2)cc(OC)c1OC (stereo unspecified) 2.82 µM [inhibitor, partial curve, poor fit], O=C(NC1CCCCC1)c1cc([N+](=O)[O-])ccc1N1CCOCC1 89.1 µM [inhibitor, partial curve, poor fit], CN1CCN(c2cc(-c3cc(O)c4ncccc4c3)ccn2)CC1 35.5 µM [inhibitor, partial curve, poor fit], FC(F)(F)c1ccc(N/N=C/c2cccnc2)nc1 89.1 µM [inhibitor, single point], COc1ccc2oc(C(=O)NCCc3ccccc3)c(C)c2c1 39.8 µM [inhibitor, single point], COc1ccc([N+](=O)[O-])cc1N(CC(=O)O)S(C)(=O)=O 89.1 µM [inhibitor, partial curve, poor fit], CCOc1cc(/C=C2/SC(=S)N(Cc3ccccc3)C2=O)ccc1O 28.2 µM [inhibitor, single point], COc1cccc(-n2c(SCC(=O)c3c[nH]c4ccccc34)nc3ccccc3c2=O)c1 39.8 µM [inhibitor, single point], Cc1ccc2oc(-c3cccc(NC(=S)NC(=O)/C=C/c4ccco4)c3)nc2c1 12.6 µM [inhibitor, partial curve, poor fit], COc1ccc(CN(C)CCc2ccccn2)cc1OC 31.6 µM [inhibitor, single point], Cc1cccc(C2C=C(c3ccc(C)c(C)c3)Nc3nnnn32)c1 (stereo unspecified) 39.8 µM [inhibitor, partial curve, poor fit], Cc1ccc(NC(=O)c2nc(S(=O)(=O)Cc3ccccc3F)ncc2Cl)cc1C 63.1 µM [inhibitor, partial curve, poor fit], CC(C)N1CCN(S(=O)(=O)c2ccccc2)c2ccccc21 100 µM [inhibitor, partial curve, poor fit], CCOC(=O)c1c(NC(=O)c2ccoc2C)sc2c1CCC2 39.8 µM [inhibitor, single point], Cc1cccc2cc(C#N)c(N3CCCC3)nc12 11.2 µM [inhibitor, partial curve, poor fit], O=C(Cc1cc(=O)[nH][nH]1)N/N=C/c1ccccc1[N+](=O)[O-] 10 µM [inhibitor, partial curve, poor fit], CCOC(=O)c1c(-c2ccc(C)o2)csc1NC(=O)CSc1nncs1 39.8 µM [inhibitor, partial curve]

Potency, active:
COc1ccccc1NC(=O)CSc1nc(O)cc(=O)n1-c1ccccc1OC 39.8 µM, O=C(O)C1Nc2c(C(=O)N3CCOCC3)cccc2C2C=CCC12 (stereo unspecified) 11.2 µM

Potency, inactive:
CN(C)c1ccc(N=Nc2ccccc2C(=O)OCC(=O)N2CCCC2)cc1, Cc1ccc2c(c1)c1c(c(=O)n(-c3ccccc3C)c(=O)n1CC(=O)N1CCCC1)n2C, Cc1nn(-c2ccc(Cl)cc2)c(=O)c2ccccc12, O=C(NCCc1ccccc1Cl)c1ccc2c(c1)nc1n2CCOC1, CCCNC(=O)c1c(C)nn(-c2cccc(C)c2)c1-n1cccc1, Cc1nc(N2CCOCC2)c2c(C(=O)NCCc3ccccc3)c(C)oc2n1, Cc1sc2nc(SCC(=O)Nc3ccccc3F)[nH]c(=O)c2c1C, Cc1ccc(C(=O)n2nc(-c3ccco3)nc2NCc2cccs2)cc1, CCNC(=O)CC1C(=O)N(c2ccc(F)cc2)C(=O)N1Cc1ccc(OC)cc1 (stereo unspecified), COc1ccc(C2CC(O)(c3ccccc3)Oc3cc(C)cc(C)c32)cc1 (stereo unspecified), Cc1cc(C)cc(NC(=S)Nc2ccc(Cl)c(Cl)c2)c1, O=C(NCc1ccc2c(c1)OCO2)c1ccc(NC(=O)C2CCCO2)cc1 (stereo unspecified), CN1CCN(/[N+]([O-])=N/Oc2ccc([N+](=O)[O-])cc2[N+](=O)[O-])CC1, CN(C)CCCN(C(=O)c1ccc([N+](=O)[O-])s1)c1nc2cc3c(cc2s1)OCCO3, COc1ccc(C(=O)COC(=O)C2CC3CCCC(C2)C3=O)cc1Br (stereo unspecified), Cc1ccc2oc(=O)c3cc(C(=O)NCCCN4CCc5ccccc5C4)sc3c2c1, CSC1=N/C(=C\c2ccc(C)o2)C(=O)S1
